Earlier results, collected in patent US20210137853A1, “METHODS OF TREATING EPILEPTIC PATIENTS WITH FENFLURAMINE” (Zogenix International Limited, priority 2019, published 2021).

Conditions: Table 4; compound i.p. in mice; cited from earlier work

Row | SMILES | Time to peak (Time to Peak Activity)
1 | NC(=O)N1c2ccccc2C=Cc2ccccc21 [Carbamazepine] | 0.25
2 | CN(C)CCCN1c2ccccc2Sc2ccc(Cl)cc21 [Chlorpromazine] | 00.5
3 | CN1CCN(C2=Nc3ccccc3Oc3ccc(Cl)cc32)CC1 [Loxapine] | 0.5
4 | Clc1ccc2c(c1)N=C(N1CCNCC1)c1ccccc1N2 [N-desmethyl-clozapine, N-desmethylclozapine] | 11.0
5 | O=c1[nH]c2ccccc2n1C1CCN(CCCC(c2ccc(F)cc2)c2ccc(F)cc2)CC1 [Pimozide] | 0.5
6 | CC(C)NCC(O)COc1cccc2[nH]ccc12 (centres unmarked) [Pindolol] | 1
7 | CN1CC2c3ccccc3Oc3ccc(Cl)cc3C2C1 (centres unmarked) [asenapine] | 11.0
8 | CN(C)CCCN1c2ccccc2CCc2ccc(Cl)cc21 [clomipramine] | 11
9 | CN(C)CCC=C1c2ccccc2COc2ccccc21 [doxepin] | 00.25
10 | CN1CCN2c3ccccc3Cc3ccccc3C2C1 (centres unmarked) [mianserin] | 11.0
11 | OCCN1CCN(CCCN2c3ccccc3Sc3ccc(Cl)cc32)CC1 [perphenazine] | 1.0
